Where two headings read alike, the source gives them in different places. The match of structure and compound is tentative. Some results are limits rather than exact numbers.

The chains behind the UniProt entries cited, without tags or fusion partners. Residues count along the entry.
UniProt Q96GG9, 60-248 limits assumed: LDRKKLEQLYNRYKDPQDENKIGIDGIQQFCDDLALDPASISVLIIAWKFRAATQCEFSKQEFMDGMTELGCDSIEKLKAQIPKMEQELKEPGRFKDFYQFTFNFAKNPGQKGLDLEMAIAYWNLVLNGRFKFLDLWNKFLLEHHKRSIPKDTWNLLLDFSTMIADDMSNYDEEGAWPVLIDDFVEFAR
UniProt Q96GG9, whole entry: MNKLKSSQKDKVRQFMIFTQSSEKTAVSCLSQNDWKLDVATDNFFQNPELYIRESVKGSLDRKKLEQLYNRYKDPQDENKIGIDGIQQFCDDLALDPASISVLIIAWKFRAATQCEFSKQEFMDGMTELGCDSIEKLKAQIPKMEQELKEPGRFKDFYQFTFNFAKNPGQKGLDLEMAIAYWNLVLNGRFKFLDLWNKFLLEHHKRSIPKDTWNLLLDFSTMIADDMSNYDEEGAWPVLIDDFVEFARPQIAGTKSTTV

For assay [1], the target named is DCN1 (DCUND1) protein PONY domain (Homo sapiens (Human), UniProt Q96GG9). As to the kind of experiment: TR-FRET assay (binding to DCN-1, displacement of FAM-labeled probe). For orientation: Time-resolved FRET reads energy transfer from a long-lived donor to a nearby acceptor.
The target in assay [2] is DCN1 protein (Homo sapiens (Human), UniProt Q96GG9). As to the kind of experiment: Intact protein MS analysis with the RapidFire-TOF system (covalent adduct formation). The following applies: 400 nM DCN1, incubated at room temperature for 3 hours.
[3] abbreviates: read-out: TR FRET IC50 1 hr, 1 hr after treatment with compound.
Where [4] appears, read: read-out: TR FRET IC50 24 hr, 24 hr after treatment with compound.

As to `C=C(CN(C)C1COC1)C(=O)N(C)Cc1cccc([C@@H]2c3cnn(-c4ccccc4)c3N(CC)C(=O)[C@H]2NC(=O)c2ccn(C(F)(F)F)n2)c1`, the IC50 lay in the range of 1000 to 3000 nM in assay [1] (setting [3]) and 200 to 1000 nM in assay [1] (setting [4]).
For `C=C(C(=O)N(C)Cc1cccc([C@@H]2c3cnn(-c4ccccc4)c3N(CC)C(=O)[C@H]2NC(=O)c2nccc(C(F)(F)F)n2)c1)C(C)N(C)C1COC1` (some centres unmarked) the same measures were 1000 to 3000 nM and 200 to 1000 nM.
For `C=C(C(=O)NCc1cccc([C@@H]2c3cnn(-c4ccccc4)c3N(CC)C(=O)[C@H]2NC(=O)c2nccc(C(F)(F)F)n2)c1)C(C)N1CCC1` (some centres unmarked) the same measures were less than 200 nM and less than 200 nM.
For the molecule `C=C(C(=O)NCc1cccc([C@@H]2c3cnn(-c4ccccc4)c3N(CC)C(=O)[C@H]2NC(=O)c2ccn(C(F)(F)F)n2)c1)C(C)N(C)C1COC1` (some centres unmarked), the IC50 in assay [1] (setting [3]) and in assay [1] (setting [4]) was less than 200 nM each time.
For the molecule `CCN1C(=O)[C@H](NC(=O)c2cccc(C(F)(F)F)c2)[C@@H](c2cccc(NC(=O)C3=CCCC3)c2)c2c(C)nn(-c3ccccc3)c21` (relative stereo), the IC50 in assay [1] (setting [3]) and in assay [1] (setting [4]) was greater than 3000 nM throughout. The “% Adduct Formation (MS Emax)” value in assay [2] was “+ (MS Emax % adduct formation greater than or equal to 0.0 and less than or equal to 30.0)”.
As for `C=C(Cn1ccnc1)C(=O)NCc1cccc([C@@H]2c3cnn(-c4ccccc4)c3N(CC)C(=O)[C@H]2NC(=O)c2nccc(C(F)(F)F)n2)c1`, the 50% inhibitory concentration (IC50) in assay [1] (read-out: TR FRET IC50 1 hr, 1 hr after treatment with compound, tested form: formate) is 200 to 1000 nM; in assay [1] (read-out: TR FRET IC50 24 hr, 24 hr after treatment with compound, tested form: formate), less than 200 nM.
In the case of `C=C(CN1CCOCC1)C(=O)N(C)c1cccc([C@H]2c3cnn(-c4ccccc4)c3N(CC)C(=O)[C@@H]2NC(=O)c2cccc(C(F)(F)F)c2)c1` (relative stereo), the IC50 in assay [1] (setting [3]) and in assay [1] (setting [4]) was 1000 to 3000 nM each time.
Take `C=C(CN1CCC(F)(F)C1)C(=O)NCc1cccc([C@@H]2c3cnn(-c4ccccc4)c3N(CC)C(=O)[C@H]2NC(=O)c2nccc(C(F)(F)F)n2)c1`: the IC50 was 200 to 1000 nM in assay [1] (setting [3]) and less than 200 nM in assay [1] (setting [4]). The “% Adduct Formation (MS Emax)” value in assay [2] is “+++ (MS Emax % adduct formation greater than 80.0 and less than or equal to 100.0)”.
With `C=C(CN1CCOCC1)C(=O)N(C)Cc1cccc([C@@H]2c3cnn(-c4ccccc4)c3N(CC)C(=O)[C@H]2NC(=O)c2cccc(C(F)(F)F)c2)c1`, the half-inhibitory concentration (IC50) in assay [1] (setting [3]) is 200 to 1000 nM; in assay [1] (setting [4]), less than 200 nM.
As for `CCN1C(=O)[C@H](NC(=O)c2cccc(C(F)(F)F)c2)[C@@H](c2cccc(NC(=O)/C=C/C(F)(F)F)c2)c2c(C)nn(-c3ccccc3)c21` (relative stereo), the IC50 is greater than 3000 nM in assay [1] (setting [3]) and 200 to 1000 nM in assay [1] (setting [4]). The “% Adduct Formation (MS Emax)” value in assay [2] is “+++ (MS Emax % adduct formation greater than 80.0 and less than or equal to 100.0)”.

One may read the IC50 as the concentration at which inhibition is half-maximal.

These data come from US12435087B2, “Modulators of DCN-1 and methods of use thereof” (Cellarity, Inc., priority 2023, dated 2025).
